For this assay, the target named is T1, Oxysterol-binding protein (OSBP)-related protein 4, long variant (ORP4L) (human (endogenous in Jurkat)) (UniProt Q969R2).
T1 sequence: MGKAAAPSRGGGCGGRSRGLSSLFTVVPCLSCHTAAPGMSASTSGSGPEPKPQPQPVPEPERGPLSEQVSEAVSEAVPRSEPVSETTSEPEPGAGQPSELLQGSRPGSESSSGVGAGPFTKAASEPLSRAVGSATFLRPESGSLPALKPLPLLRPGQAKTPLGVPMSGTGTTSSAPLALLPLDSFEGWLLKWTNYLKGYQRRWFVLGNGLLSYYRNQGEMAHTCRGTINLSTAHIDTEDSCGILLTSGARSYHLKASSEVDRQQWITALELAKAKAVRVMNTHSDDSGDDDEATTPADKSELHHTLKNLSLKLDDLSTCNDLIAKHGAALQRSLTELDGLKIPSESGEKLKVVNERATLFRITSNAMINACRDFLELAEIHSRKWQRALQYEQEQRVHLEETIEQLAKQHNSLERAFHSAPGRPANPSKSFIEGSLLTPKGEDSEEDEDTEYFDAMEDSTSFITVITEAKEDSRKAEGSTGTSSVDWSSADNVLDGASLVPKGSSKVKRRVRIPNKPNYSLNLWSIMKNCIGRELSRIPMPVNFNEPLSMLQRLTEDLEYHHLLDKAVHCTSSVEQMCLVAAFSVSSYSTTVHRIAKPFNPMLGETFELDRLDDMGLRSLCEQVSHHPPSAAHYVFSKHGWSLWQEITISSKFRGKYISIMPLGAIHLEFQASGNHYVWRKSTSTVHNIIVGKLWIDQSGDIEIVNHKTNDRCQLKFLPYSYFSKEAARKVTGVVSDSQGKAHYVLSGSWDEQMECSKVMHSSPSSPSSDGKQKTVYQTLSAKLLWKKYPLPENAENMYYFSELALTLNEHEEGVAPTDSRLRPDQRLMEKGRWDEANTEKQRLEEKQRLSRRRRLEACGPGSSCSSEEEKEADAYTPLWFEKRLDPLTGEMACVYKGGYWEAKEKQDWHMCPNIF
The assay can be described thus: affinity purification with mass spectrometry; anti-ORP4L antibody (rabbit, raised against residues 382-485) or control IgG coupled to CNBr-activated sepharose; total lysates of Jurkat T-cells stimulated with 10 μg/ml anti-CD3 for 5 min; SDS-PAGE, in-gel tryptic digestion, mass spectrometry.

Chains of the proteins cited; added tags and fusions are not shown. Residues count along the entry.
UniProt P07766, residues 23-207: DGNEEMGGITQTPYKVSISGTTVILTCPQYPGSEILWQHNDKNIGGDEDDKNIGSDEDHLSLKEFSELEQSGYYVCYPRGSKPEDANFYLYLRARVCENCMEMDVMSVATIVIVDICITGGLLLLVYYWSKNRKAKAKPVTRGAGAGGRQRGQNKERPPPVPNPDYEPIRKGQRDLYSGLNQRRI

These are yes or no findings as the source states them, for the method shown. Binding seen in cells or lysates may run through a third protein. These calls come from enrichment with a bait or labelling near it, and not all partners need be listed.

Consider CD3ɛ (from UniProt P07766 23-207), for which the binding entry is “binds”.

B1: PLCβ3 (enzyme, UniProt Q01970 1-1234)
chain: MAGAQPGVHALQLEPPTVVETLRRGSKFIKWDEETSSRNLVTLRVDPNGFFLYWTGPNMEVDTLDISSIRDTRTGRYARLPKDPKIREVLGFGGPDARLEEKLMTVVSGPDPVNTVFLNFMAVQDDTAKVWSEELFKLAMNILAQNASRNTFLRKAYTKLKLQVNQDGRIPVKNILKMFSADKKRVETALESCGLKFNRSESIRPDEFSLEIFERFLNKLCLRPDIDKILLEIGAKGKPYLTLEQLMDFINQKQRDPRLNEVLYPPLRPSQARLLIEKYEPNQQFLERDQMSMEGFSRYLGGEENGILPLEALDLSTDMTQPLSAYFINSSHNTYLTAGQLAGTSSVEMYRQALLWGCRCVELDVWKGRPPEEEPFITHGFTMTTEVPLRDVLEAIAETAFKTSPYPVILSFENHVDSAKQQAKMAEYCRSIFGDALLIEPLDKYPLAPGVPLPSPQDLMGRILVKNKKRHRPSAGGPDSAGRKRPLEQSNSALSESSAATEPSSPQLGSPSSDSCPGLSNGEEVGLEKPSLEPQKSLGDEGLNRGPYVLGPADREDEEEDEEEEEQTDPKKPTTDEGTASSEVNATEEMSTLVNYIEPVKFKSFEAARKRNKCFEMSSFVETKAMEQLTKSPMEFVEYNKQQLSRIYPKGTRVDSSNYMPQLFWNVGCQLVALNFQTLDVAMQLNAGVFEYNGRSGYLLKPEFMRRPDKSFDPFTEVIVDGIVANALRVKVISGQFLSDRKVGIYVEVDMFGLPVDTRRKYRTRTSQGNSFNPVWDEEPFDFPKVVLPTLASLRIAAFEEGGKFVGHRILPVSAIRSGYHYVCLRNEANQPLCLPALLIYTEASDYIPDDHQDYAEALINPIKHVSLMDQRARQLAALIGESEAQAGQETCQDTQSQQLGSQPSSNPTPSPLDASPRRPPGPTTSPASTSLSSPGQRDDLIASILSEVAPTPLDELRGHKALVKLRSRQERDLRELRKKHQRKAVTLTRRLLDGLAQAQAEGRCRLRPGALGGAADVEDTKEGEDEAKRYQEFQNRQVQSLLELREAQVDAEAQRRLEHLRQALQRLREVVLDANTTQFKRLKEMNEREKKELQKILDRKRHNSISEAKMRDKHKKEAELTEINRRHITESVNSIRRLEEAQKQRHDRLVAGQQQVLQQLAEEEPKLLAQLAQECQEQRARLPQEIRRSLLGEMPEGLGDGPLVACASNGHAPGSSGHLSGADSESQEENTQL
As to B1, the binding entry is on record as “binds”.

For the origin of these results see PMC5025801.
